The other results are listed elsewhere or left out. Most values lie at the level of the controls, where differences are scatter.

Chains of the proteins cited; added tags and fusions are not shown. Lines headed by an entry give the natural chain unless they say otherwise; changes in a name come on top.
UniProt P31471: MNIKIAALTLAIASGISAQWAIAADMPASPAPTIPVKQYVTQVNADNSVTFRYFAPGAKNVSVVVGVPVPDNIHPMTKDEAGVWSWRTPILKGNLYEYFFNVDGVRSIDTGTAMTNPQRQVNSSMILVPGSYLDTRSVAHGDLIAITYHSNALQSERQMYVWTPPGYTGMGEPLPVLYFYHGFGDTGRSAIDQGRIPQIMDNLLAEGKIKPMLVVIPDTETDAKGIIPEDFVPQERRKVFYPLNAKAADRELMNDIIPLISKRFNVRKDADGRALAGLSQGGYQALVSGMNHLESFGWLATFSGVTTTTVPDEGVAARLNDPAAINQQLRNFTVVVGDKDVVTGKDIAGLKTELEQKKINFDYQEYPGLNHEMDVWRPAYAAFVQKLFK
UniProt P31134: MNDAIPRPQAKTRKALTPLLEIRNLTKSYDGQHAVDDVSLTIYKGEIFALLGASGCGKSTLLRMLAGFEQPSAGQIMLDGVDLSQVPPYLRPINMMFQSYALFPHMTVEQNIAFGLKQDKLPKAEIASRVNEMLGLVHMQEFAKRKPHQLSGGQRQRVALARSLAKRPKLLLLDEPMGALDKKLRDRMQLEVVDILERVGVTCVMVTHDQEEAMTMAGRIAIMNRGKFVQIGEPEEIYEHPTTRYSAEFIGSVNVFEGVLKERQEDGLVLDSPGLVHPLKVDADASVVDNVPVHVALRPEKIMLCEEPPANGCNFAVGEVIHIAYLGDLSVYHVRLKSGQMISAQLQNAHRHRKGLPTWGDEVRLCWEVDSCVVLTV
UniProt P28638: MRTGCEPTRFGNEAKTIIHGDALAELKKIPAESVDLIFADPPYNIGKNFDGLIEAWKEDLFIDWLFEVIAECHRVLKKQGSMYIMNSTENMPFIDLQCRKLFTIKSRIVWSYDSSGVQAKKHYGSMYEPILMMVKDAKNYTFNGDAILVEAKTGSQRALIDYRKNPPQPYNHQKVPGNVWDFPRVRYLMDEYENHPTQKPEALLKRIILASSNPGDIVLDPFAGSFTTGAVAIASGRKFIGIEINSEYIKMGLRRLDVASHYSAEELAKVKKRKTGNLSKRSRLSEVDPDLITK
UniProt P31459: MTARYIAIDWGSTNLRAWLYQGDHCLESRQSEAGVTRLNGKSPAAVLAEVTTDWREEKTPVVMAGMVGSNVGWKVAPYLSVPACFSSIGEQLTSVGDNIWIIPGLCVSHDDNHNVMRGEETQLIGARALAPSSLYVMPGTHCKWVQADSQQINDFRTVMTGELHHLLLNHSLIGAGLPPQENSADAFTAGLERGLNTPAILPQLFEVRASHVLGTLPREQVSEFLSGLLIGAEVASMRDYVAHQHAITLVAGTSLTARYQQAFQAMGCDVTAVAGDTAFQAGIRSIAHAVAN
UniProt P31449: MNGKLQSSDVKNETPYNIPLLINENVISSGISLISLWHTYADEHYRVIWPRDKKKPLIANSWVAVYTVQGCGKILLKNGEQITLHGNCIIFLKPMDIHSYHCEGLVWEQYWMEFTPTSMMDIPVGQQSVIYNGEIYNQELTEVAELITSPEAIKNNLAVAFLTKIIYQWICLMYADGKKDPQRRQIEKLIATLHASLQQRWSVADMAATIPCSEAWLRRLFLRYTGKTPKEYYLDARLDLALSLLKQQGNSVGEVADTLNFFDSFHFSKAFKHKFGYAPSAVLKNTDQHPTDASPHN
UniProt P31548: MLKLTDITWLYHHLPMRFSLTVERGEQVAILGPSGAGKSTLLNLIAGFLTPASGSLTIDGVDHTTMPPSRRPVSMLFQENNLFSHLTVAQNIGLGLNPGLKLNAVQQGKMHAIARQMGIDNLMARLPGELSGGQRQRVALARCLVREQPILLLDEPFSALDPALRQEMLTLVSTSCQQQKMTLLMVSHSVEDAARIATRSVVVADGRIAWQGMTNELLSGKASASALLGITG
UniProt P29013: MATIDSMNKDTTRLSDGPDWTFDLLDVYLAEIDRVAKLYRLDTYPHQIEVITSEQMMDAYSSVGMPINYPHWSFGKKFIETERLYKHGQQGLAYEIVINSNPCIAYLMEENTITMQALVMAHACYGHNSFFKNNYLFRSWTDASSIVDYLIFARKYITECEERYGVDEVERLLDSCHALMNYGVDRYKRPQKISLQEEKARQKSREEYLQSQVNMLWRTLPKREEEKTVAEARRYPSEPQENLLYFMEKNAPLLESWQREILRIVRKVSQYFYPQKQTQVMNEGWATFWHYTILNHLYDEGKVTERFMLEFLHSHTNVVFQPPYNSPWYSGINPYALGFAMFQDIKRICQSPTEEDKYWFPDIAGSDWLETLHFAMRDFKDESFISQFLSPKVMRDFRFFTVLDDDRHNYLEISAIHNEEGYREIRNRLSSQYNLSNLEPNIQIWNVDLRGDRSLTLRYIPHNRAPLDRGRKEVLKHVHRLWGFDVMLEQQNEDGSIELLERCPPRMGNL
UniProt P31680: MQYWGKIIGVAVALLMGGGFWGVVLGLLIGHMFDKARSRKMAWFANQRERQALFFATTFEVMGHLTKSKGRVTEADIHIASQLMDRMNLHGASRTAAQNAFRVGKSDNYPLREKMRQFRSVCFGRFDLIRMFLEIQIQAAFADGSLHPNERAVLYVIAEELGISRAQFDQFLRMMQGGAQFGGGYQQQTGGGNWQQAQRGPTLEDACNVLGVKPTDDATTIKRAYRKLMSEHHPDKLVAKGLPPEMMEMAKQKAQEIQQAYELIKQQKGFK
UniProt P31447: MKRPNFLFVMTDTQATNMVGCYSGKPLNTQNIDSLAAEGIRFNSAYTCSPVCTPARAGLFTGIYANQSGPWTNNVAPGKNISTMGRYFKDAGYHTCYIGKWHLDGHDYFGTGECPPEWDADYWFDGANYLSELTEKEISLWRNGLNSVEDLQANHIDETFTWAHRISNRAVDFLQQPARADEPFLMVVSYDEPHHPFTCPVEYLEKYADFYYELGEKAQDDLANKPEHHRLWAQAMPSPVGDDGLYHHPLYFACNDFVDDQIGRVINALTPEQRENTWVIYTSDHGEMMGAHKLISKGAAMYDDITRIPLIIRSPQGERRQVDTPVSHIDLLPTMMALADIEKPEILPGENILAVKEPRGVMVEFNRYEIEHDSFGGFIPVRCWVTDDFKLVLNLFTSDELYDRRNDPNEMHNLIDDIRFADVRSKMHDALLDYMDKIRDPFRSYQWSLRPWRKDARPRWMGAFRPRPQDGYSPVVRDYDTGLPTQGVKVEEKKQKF
UniProt P31697: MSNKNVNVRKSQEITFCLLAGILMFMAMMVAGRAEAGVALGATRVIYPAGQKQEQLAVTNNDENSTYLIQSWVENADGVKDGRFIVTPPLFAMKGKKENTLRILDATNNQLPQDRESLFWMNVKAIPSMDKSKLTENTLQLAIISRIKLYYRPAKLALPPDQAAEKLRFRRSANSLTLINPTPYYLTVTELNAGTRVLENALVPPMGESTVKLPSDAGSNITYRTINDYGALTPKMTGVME
UniProt P28903: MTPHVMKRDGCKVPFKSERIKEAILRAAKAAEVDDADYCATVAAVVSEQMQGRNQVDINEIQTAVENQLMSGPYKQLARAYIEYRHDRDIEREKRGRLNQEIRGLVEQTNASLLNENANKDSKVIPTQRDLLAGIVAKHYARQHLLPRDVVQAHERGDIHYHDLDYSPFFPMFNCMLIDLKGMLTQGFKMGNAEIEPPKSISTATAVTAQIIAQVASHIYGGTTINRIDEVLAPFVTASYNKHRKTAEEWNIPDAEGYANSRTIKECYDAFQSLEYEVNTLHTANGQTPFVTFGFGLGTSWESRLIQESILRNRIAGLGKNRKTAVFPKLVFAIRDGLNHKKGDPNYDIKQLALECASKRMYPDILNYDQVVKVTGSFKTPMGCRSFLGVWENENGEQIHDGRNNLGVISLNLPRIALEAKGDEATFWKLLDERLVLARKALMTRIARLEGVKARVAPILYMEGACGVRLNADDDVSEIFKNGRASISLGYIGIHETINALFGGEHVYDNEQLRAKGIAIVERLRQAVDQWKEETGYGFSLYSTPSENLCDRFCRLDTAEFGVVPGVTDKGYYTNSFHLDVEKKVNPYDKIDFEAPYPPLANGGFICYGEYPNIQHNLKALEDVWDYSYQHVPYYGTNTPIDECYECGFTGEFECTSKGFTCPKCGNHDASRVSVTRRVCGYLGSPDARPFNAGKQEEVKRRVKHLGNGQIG

Compound in the assay: CC1(C)S[C@@H]2[C@H](NC(=O)[C@H](N)c3ccccc3)C(=O)N2[C@H]1C(=O)O [ampicillin]
The assay is described as follows: log2 fold change of tryptic peptide abundance, ligand vs vehicle (limited proteolysis) (log2 ratio); higher = more trypsin-susceptible (destabilized). The settings on record: ligand concentration: 10 uM; sample: E. coli crude lysate.
“UniProt P31471 (peptide sequence: VFYPLNAK, peptide start residue: 239)”: the log2 fold change turned out to be 0.415. Take “UniProt P31134 (peptide sequence: LLLLDEPMGALDKK, peptide start residue: 170)”: the log2 fold change was -0.251. Take “UniProt P28638 (peptide sequence: ALIDYRK, peptide start residue: 158)”: the log2 fold change was found to be 0.209. Consider “UniProt P31459 (peptide sequence: GEETQLIGAR, peptide start residue: 118)”, for which the log2 fold change is -0.355. For the target “UniProt P31449 (peptide sequence: FGYAPSAVLK, peptide start residue: 275)”, the log2 fold change was -0.139.

On to “UniProt P31548 (peptide sequence: QMGIDNLMAR, peptide start residue: 116)”, for which the log2 fold change is -0.47.

With “UniProt P29013 (peptide sequence: NAPLLESWQR, peptide start residue: 250)”, the log2 fold change is -0.491. Take “UniProt P31680 (peptide sequence: MNLHGASR, peptide start residue: 87)”: the log2 fold change was determined as 0.133. With “UniProt P31447 (peptide sequence: DYDTGLPTQGVK, peptide start residue: 478)”, the log2 fold change is 0.197. For the target “UniProt P31697 (peptide sequence: TINDYGALTPK, peptide start residue: 225)”, the log2 fold change amounted to 0.0593. For the target “UniProt P28903 (peptide sequence: LVFAIRDGLNHK, peptide start residue: 330)”, the log2 fold change was -0.882.

The values above are taken from the supplement of paper PMC12819154, “High-throughput peptide-centric local stability assay extends protein–ligand identification to membrane proteins, tissues and bacteria” (Nature Structural & Molecular Biology, 2025).
